Reference: the supplement of paper PMC10849652
The list shows a part of the results.

Chains of the proteins cited; added tags and fusions are not shown. Lines headed by an entry give the natural chain unless they say otherwise; changes in a name come on top.
UniProt Q96AE4: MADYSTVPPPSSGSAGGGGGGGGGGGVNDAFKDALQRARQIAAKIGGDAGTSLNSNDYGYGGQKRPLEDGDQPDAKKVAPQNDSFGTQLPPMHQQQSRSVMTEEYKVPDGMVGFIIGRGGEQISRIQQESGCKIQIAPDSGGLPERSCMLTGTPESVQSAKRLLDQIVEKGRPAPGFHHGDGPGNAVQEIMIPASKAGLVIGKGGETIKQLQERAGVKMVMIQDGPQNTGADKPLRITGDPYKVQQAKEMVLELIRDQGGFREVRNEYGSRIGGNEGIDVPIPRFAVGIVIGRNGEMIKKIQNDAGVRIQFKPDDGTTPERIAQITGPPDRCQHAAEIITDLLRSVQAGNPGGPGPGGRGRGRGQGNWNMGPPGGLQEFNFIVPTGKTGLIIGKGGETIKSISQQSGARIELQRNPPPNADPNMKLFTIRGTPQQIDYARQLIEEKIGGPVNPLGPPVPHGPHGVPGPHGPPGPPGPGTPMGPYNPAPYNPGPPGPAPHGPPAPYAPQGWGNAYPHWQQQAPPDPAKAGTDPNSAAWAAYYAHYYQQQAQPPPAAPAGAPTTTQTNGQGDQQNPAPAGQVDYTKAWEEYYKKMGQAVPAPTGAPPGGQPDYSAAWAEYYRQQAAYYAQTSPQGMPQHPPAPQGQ
UniProt O75223: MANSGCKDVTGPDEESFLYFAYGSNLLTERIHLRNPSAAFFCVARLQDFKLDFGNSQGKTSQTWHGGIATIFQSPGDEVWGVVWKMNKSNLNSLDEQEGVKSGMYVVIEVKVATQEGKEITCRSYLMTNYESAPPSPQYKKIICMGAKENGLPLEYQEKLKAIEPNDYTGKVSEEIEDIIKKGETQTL
UniProt Q7Z7M9: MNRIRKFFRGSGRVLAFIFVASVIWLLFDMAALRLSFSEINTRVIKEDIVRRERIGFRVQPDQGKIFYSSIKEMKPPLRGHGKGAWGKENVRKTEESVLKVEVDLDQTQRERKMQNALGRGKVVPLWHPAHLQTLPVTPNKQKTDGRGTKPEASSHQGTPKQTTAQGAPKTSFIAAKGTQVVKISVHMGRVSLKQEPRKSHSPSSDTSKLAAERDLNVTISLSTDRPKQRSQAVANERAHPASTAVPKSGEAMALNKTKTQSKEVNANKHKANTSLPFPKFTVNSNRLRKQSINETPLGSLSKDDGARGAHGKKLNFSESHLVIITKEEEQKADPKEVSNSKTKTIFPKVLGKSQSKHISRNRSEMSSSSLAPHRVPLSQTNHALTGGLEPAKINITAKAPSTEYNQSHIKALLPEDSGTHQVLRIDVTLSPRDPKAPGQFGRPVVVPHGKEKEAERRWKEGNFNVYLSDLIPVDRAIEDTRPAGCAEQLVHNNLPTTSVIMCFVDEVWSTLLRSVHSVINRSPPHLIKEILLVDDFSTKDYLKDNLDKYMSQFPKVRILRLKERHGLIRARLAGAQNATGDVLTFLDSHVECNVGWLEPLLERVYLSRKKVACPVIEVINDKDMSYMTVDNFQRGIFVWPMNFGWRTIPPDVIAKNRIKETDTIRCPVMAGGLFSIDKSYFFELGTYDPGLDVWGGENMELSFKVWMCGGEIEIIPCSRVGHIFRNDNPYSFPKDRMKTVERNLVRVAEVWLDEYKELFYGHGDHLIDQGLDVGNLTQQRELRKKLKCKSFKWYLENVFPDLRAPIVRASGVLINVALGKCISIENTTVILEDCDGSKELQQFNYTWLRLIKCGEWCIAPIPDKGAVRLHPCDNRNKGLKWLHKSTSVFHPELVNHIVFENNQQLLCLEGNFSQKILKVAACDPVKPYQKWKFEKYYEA
UniProt Q6NT46: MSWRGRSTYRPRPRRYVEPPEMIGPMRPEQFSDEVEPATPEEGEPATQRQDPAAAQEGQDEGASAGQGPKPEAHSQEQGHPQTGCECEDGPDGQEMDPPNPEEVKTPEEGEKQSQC
UniProt Q13069: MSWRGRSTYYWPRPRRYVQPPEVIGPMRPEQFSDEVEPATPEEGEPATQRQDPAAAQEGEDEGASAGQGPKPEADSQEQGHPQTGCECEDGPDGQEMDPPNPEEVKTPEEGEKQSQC
UniProt Q86SR1: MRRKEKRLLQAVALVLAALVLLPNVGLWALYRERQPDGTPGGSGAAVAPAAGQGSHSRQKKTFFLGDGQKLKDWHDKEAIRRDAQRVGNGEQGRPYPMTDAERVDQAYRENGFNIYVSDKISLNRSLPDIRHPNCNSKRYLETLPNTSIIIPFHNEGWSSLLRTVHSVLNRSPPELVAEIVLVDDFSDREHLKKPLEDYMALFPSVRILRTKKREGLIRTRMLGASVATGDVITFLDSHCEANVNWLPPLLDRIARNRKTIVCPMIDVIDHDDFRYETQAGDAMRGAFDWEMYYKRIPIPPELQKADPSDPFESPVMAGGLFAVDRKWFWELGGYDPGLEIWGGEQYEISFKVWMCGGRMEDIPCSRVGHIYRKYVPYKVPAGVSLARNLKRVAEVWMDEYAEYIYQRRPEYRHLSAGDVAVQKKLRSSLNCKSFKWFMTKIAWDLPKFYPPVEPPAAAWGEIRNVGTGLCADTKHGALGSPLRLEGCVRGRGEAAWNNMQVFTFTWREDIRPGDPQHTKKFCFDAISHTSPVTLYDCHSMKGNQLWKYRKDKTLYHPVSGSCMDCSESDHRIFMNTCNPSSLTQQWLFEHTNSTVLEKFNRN
UniProt P85037: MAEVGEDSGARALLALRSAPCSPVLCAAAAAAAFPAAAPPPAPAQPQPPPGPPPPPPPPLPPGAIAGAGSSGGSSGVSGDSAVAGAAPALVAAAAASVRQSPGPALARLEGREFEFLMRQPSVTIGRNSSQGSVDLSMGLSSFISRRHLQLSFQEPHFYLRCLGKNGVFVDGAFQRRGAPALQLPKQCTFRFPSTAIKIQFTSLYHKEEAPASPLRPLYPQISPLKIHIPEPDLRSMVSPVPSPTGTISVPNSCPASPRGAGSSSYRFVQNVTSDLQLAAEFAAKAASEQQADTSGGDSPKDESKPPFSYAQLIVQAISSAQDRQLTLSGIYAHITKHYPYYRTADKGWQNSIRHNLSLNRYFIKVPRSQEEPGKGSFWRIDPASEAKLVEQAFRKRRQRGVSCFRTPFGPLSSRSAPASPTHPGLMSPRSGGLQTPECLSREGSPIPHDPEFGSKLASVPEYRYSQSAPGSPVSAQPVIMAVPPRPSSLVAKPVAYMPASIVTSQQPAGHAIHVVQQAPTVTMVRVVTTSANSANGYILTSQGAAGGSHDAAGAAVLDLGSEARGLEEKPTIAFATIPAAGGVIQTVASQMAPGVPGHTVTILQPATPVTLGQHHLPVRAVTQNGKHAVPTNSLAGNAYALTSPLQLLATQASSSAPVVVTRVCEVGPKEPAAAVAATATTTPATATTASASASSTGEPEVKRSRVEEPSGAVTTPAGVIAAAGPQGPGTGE
UniProt Q96NB1: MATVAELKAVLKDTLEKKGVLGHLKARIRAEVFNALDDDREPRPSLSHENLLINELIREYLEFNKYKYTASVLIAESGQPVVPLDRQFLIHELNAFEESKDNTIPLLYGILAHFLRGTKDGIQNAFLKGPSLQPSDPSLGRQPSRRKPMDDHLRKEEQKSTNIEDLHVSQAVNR
UniProt P30047: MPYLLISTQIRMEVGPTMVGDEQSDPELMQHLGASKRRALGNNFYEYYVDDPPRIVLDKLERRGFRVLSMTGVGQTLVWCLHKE
UniProt P36268: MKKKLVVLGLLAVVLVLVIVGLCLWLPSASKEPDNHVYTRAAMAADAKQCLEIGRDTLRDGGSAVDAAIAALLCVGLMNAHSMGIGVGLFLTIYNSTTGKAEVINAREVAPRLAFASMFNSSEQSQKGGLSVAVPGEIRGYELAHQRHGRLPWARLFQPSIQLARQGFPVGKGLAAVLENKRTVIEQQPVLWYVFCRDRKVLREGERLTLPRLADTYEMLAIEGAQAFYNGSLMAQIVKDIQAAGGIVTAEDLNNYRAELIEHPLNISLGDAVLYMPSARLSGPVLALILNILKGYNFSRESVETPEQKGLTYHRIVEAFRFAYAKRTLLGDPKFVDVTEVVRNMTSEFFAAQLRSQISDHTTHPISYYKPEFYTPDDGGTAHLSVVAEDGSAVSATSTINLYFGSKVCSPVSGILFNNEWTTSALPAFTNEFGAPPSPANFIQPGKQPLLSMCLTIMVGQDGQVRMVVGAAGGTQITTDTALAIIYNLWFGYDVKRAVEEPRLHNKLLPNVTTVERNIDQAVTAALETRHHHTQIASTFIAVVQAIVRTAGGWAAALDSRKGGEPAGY
UniProt P04406: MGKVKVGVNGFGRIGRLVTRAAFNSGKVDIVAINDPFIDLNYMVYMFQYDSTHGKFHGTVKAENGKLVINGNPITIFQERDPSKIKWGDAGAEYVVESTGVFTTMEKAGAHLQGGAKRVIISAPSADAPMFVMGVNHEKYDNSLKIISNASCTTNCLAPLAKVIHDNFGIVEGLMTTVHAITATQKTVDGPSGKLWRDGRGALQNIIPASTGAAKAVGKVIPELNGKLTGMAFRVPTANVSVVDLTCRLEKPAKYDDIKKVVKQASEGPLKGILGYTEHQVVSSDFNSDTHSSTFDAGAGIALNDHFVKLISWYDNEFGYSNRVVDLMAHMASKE
UniProt P23434: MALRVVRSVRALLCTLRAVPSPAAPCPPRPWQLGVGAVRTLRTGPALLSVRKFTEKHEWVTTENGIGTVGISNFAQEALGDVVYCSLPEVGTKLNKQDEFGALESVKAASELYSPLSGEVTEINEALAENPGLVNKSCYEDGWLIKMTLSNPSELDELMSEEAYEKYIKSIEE
UniProt Q9UJ14: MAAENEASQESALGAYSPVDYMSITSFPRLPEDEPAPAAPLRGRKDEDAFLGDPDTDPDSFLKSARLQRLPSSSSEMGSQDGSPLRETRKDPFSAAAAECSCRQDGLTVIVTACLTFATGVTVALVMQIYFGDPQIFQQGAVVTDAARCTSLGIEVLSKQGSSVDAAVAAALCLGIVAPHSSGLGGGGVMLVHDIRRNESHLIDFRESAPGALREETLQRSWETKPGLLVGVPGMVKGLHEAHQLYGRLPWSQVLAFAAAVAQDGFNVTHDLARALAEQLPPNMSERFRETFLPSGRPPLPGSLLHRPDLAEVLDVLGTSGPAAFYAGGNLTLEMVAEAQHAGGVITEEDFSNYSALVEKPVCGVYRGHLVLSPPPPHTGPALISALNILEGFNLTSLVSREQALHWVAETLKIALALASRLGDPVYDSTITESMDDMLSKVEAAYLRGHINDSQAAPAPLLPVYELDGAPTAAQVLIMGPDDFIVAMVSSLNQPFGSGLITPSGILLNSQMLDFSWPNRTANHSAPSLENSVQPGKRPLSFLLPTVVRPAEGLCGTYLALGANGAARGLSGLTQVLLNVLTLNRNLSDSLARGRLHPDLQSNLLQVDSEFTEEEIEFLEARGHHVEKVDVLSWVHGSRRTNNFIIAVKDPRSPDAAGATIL
UniProt P15407: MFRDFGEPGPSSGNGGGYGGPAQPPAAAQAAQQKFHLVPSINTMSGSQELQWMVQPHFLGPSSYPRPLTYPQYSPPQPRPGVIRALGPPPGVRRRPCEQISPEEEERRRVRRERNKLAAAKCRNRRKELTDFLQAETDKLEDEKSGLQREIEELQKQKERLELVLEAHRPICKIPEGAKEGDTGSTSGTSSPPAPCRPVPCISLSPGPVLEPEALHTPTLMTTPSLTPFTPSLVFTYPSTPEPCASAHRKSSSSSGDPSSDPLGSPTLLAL
UniProt Q01415: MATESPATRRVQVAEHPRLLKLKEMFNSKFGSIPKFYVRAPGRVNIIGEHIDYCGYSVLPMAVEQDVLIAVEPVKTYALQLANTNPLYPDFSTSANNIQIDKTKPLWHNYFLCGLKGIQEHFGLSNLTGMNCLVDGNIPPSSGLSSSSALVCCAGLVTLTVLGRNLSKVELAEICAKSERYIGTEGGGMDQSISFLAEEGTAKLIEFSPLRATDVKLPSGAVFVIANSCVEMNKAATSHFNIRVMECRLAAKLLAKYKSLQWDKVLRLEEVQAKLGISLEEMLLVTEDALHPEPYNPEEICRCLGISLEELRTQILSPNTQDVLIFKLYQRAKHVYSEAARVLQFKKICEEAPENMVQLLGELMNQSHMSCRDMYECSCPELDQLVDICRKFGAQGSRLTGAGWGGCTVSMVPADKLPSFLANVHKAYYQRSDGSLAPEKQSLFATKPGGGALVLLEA

Tests used:
Assay in all cases: log2 fold change, soluble protein after heating vs DMSO (PISA); higher = thermal stabilisation; K562 cells, 10 uM, 30 min; active = over 0.2 and 3.5 SD of the protein, either way, in both replicates (recomputed)
[1] = compound: COC1=CC=C(C=C1)CN2C=CC3=C2C=C(C=C3)C(=O)NO
Outline: (§1)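 Thermal stability values are relative to control samples and come from duplicates. They are expressed as log2 fold changes. For measurement, K562 cells (2×10^6 cells/mL) received 10 μM compound for 30 min, and aliquots were heated for 3 min over 48°C-58°C, pooled, and extracted at 4°C in PBS with 0.5% NP-40. Soluble protein, the supernatant after 21,000xg for 90 min, was quantified by TMTpro 16plex LC-MS/MS with equalised channel sums.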

filanesib = compound: CON(C)C(=O)N1N=C(c2cc(F)ccc2F)S[C@@]1(CCCN)c1ccccc1 [filanesib]
Outline: as §1

zotarolimus = compound: CO[C@H]1C[C@@H]2CC[C@@H](C)[C@@](O)(O2)C(=O)C(=O)N2CCCC[C@H]2C(=O)O[C@H]([C@H](C)C[C@@H]2CC[C@H](n3cnnn3)[C@H](OC)C2)CC(=O)[C@H](C)/C=C(\C)[C@@H](O)[C@@H](OC)C(=O)[C@H](C)C[C@H](C)/C=C/C=C/C=C/1C [zotarolimus]
Outline: as §1

idasanutlin = compound: COc1cc(C(=O)O)ccc1NC(=O)[C@@H]1N[C@@H](CC(C)(C)C)[C@](C#N)(c2ccc(Cl)cc2F)[C@H]1c1cccc(Cl)c1F [idasanutlin]
Outline: as §1

alisertib = compound: COc1cc(Nc2ncc3c(n2)-c2ccc(Cl)cc2C(c2c(F)cccc2OC)=NC3)ccc1C(=O)O [alisertib]
Outline: as §1

[2] = compound: COc1cc2nc(-c3cc(F)ccc3O)nc(N[C@@H]3CNC[C@H]3C(C)(C)O)c2cc1OC
Outline: as §1

gefitinib = compound: COc1cc2ncnc(Nc3ccc(F)c(Cl)c3)c2cc1OCCCN1CCOCC1 [gefitinib]
Outline: as §1

[3] = compound: COc1cccc2cc(-c3nc([C@H]4CC[C@H](C(=O)O)CC4)n4ncnc(N)c34)[nH]c12
Outline: as §1

lapatinib = compound: CS(=O)(=O)CCNCc1ccc(-c2ccc3ncnc(Nc4ccc(OCc5cccc(F)c5)c(Cl)c4)c3c2)o1 [lapatinib]
Outline: as §1

pictilisib = compound: CS(=O)(=O)N1CCN(Cc2cc3nc(-c4cccc5[nH]ncc45)nc(N4CCOCC4)c3s2)CC1 [pictilisib]
Outline: as §1

Measured: log2 fold change

FNTB (UniProt P49356)
inactive: [1] 0.088 | filanesib 0.26 | zotarolimus 0.159 | idasanutlin -0.024 | alisertib -0.074 | [2] -0.057 | gefitinib 0.02 | [3] 0.024 | lapatinib 0.18 | pictilisib -0.165

FUBP1 (UniProt Q96AE4)
inactive: [1] 0.094 | filanesib -0.078 | zotarolimus 0.014 | idasanutlin 0.117 | alisertib -0.022 | [2] 0.05 | gefitinib 0.016 | [3] 0.1 | lapatinib 0.156 | pictilisib -0.198

GCLM (UniProt P48507)
inactive: [1] 0.066 | filanesib -0.004 | zotarolimus 0.071 | idasanutlin -0.124 | alisertib -0.003 | [2] 0.026 | gefitinib 0.06 | [3] -0.057 | lapatinib 0.011 | pictilisib 0.046

GHDC (UniProt Q8N2G8)
inactive: [1] -0.026 | filanesib -0.127 | zotarolimus 0.021 | idasanutlin 0.061 | alisertib -0.057 | [2] -0.13 | gefitinib 0.037 | [3] 0.087 | lapatinib 0.042 | pictilisib 0.042

GALNT1 (UniProt Q10472)
inactive: [1] 0.224 | filanesib 0.058 | zotarolimus 0.005 | idasanutlin -0.033 | alisertib 0.047 | [2] 0.044 | gefitinib 0.066 | [3] 0.034 | lapatinib 0 | pictilisib 0.023

GGCX (UniProt P38435)
inactive: [1] 0.036 | filanesib -0.056 | zotarolimus -0.016 | idasanutlin -0.053 | alisertib -0.47 | [2] -0.028 | gefitinib -0.032 | [3] -0.011 | lapatinib -0.042 | pictilisib 0.097

GCDH (UniProt Q92947)
inactive: [1] 0.02 | filanesib -0.081 | zotarolimus 0.027 | idasanutlin -0.066 | alisertib -0.066 | [2] -0.011 | gefitinib 0.042 | [3] 0.016 | lapatinib -0.004 | pictilisib -0.02

GGCT (UniProt O75223)
inactive: [1] -0.01 | filanesib -0.094 | zotarolimus 0.001 | idasanutlin -0.075 | alisertib 0.112 | [2] 0.012 | gefitinib 0.014 | [3] 0.031 | lapatinib -0.028 | pictilisib 0.114

GAB1 isoform 2 (UniProt Q13480)
inactive: [1] -0.161 | filanesib -0.034 | zotarolimus -0.117 | idasanutlin 0.008 | alisertib 0.03 | [2] -0.08 | gefitinib 0 | [3] 0.023 | lapatinib 0.032 | pictilisib -0.142

GALNT5 (UniProt Q7Z7M9)
inactive: [1] 0.013 | filanesib -0.049 | zotarolimus 0.007 | idasanutlin -0.076 | alisertib -0.023 | [2] -0.01 | gefitinib 0.093 | [3] 0.022 | lapatinib 0.035 | pictilisib 0.007

GAGE2A (UniProt Q6NT46)
inactive: [1] -0.023 | filanesib -0.033 | zotarolimus 0.079 | idasanutlin 0.079 | alisertib -0.054 | [2] -0.072 | gefitinib 0.018 | [3] 0.072 | lapatinib -0.059 | pictilisib 0.104

GALNT11 (UniProt Q8NCW6)
inactive: [1] -0.012 | filanesib -0.028 | zotarolimus -0.019 | idasanutlin -0.042 | alisertib 0 | [2] 0.052 | gefitinib 0.013 | [3] 0.062 | lapatinib -0.011 | pictilisib 0.026

GAGE5 (UniProt Q13069)
inactive: [1] -0.07 | filanesib -0.005 | zotarolimus -0.003 | idasanutlin 0.014 | alisertib -0.062 | [2] -0.013 | gefitinib -0.018 | [3] 0.047 | lapatinib -0.013 | pictilisib 0.088

GEMIN5 (UniProt Q8TEQ6)
active: [2] -0.235
inactive: [1] 0.017 | filanesib 0.037 | zotarolimus 0.039 | idasanutlin -0.024 | alisertib -0.041 | gefitinib 0.013 | [3] -0.035 | lapatinib 0.015 | pictilisib -0.021

GALNT10 (UniProt Q86SR1)
inactive: [1] 0.012 | filanesib 0.026 | zotarolimus 0.25 | idasanutlin 0.146 | alisertib -0.135 | [2] -0.046 | gefitinib 0.08 | [3] -0.093 | lapatinib -0.168 | pictilisib 0.078

FOXK1 (UniProt P85037)
inactive: [1] -0.002 | filanesib 0.361 | idasanutlin -0.123 | alisertib -0.038 | [2] 0.526 | gefitinib 0.516 | [3] 0.774 | lapatinib 0.085 | pictilisib 0.584
active: zotarolimus 1

FYCO1 isoform 4 (UniProt Q9BQS8)
inactive: [1] 0.017 | filanesib 0.014 | zotarolimus 0.037 | idasanutlin -0.069 | alisertib 0.087 | [2] -0.035 | gefitinib -0.09 | [3] -0.028 | lapatinib -0.01 | pictilisib -0.003

FOPNL (UniProt Q96NB1)
inactive: [1] -0.01 | filanesib 0.168 | zotarolimus 0.03 | idasanutlin 0.042 | alisertib -0.041 | [2] -0.12 | gefitinib 0.331 | [3] -0.039 | lapatinib -0.038 | pictilisib 0.024

FRA10AC1 isoform 3 (UniProt Q70Z53)
inactive: [1] -0.022 | filanesib 0.179 | zotarolimus -0.049 | idasanutlin -0.319 | alisertib -0.033 | [2] 0.068 | gefitinib 0 | [3] -0.005 | lapatinib -0.064 | pictilisib -0.11

G3BP1 (UniProt Q13283)
inactive: [1] -0.013 | filanesib 0.281 | zotarolimus 0.043 | idasanutlin 0.133 | alisertib -0.054 | [2] -0.058 | gefitinib -0.033 | [3] -0.05 | lapatinib 0.063 | pictilisib -0.035

GCHFR (UniProt P30047)
inactive: [1] 0.014 | filanesib -0.02 | zotarolimus -0.063 | idasanutlin -0.222 | alisertib -0.007 | [2] 0.016 | gefitinib -0.035 | [3] 0.117 | lapatinib 0.006 | pictilisib 0.279

GGT2 isoform 3 (UniProt P36268)
inactive: [1] -0.023 | filanesib 0.054 | zotarolimus -0.035 | idasanutlin 0.108 | alisertib -0.111 | [2] 0.032 | gefitinib 0.032 | [3] 0.052 | lapatinib 0.025 | pictilisib 0.034

Reprinted at random: two records from the list, in no set order.
GGT2 isoform 3 (UniProt P36268)
inactive: [1] -0.023 | filanesib 0.054 | zotarolimus -0.035 | idasanutlin 0.108 | alisertib -0.111 | [2] 0.032 | gefitinib 0.032 | [3] 0.052 | lapatinib 0.025 | pictilisib 0.034

FOPNL (UniProt Q96NB1)
inactive: [1] -0.01 | filanesib 0.168 | zotarolimus 0.03 | idasanutlin 0.042 | alisertib -0.041 | [2] -0.12 | gefitinib 0.331 | [3] -0.039 | lapatinib -0.038 | pictilisib 0.024

(cont.)

FRYL (UniProt O94915)
inactive: [1] -0.033 | filanesib 0.042 | zotarolimus 0.002 | idasanutlin -0.039 | alisertib -0.1 | [2] 0.011 | gefitinib -0.034 | [3] 0.022 | lapatinib 0.043 | pictilisib 0.054

GAPDH (UniProt P04406)
inactive: [1] 0.042 | filanesib -0.051 | zotarolimus 0.05 | idasanutlin 0 | alisertib -0.078 | [2] -0.065 | gefitinib -0.004 | [3] 0.04 | lapatinib 0.01 | pictilisib -0.041

GCSH (UniProt P23434)
inactive: [1] -0.086 | filanesib -0.029 | zotarolimus 0.014 | idasanutlin -0.024 | alisertib 0.154 | [2] 0.03 | gefitinib 0.003 | [3] 0.001 | lapatinib -0.028 | pictilisib -0.078

GGT7 (UniProt Q9UJ14)
inactive: [1] 0.044 | filanesib 0.081 | zotarolimus -0.03 | idasanutlin -0.039 | alisertib -0.07 | [2] -0.098 | gefitinib 0.055 | [3] 0.05 | lapatinib -0.062 | pictilisib 0.143

FOSL1 (UniProt P15407)
inactive: [1] -0.131 | filanesib 0.093 | zotarolimus -0.07 | idasanutlin 0.084 | alisertib -0.178 | [2] 0.091 | gefitinib 0.032 | [3] -0.029 | lapatinib 0.125 | pictilisib 0.001

GDI1 (UniProt P31150)
inactive: [1] -0.073 | filanesib -0.043 | zotarolimus 0.01 | idasanutlin -0.056 | alisertib -0.067 | [2] 0.045 | gefitinib -0.011 | [3] 0.037 | lapatinib -0.032 | pictilisib -0.006

GALK2 (UniProt Q01415)
inactive: [1] -0.03 | filanesib -0.046 | zotarolimus -0.011 | idasanutlin -0.073 | alisertib -0.054 | [2] -0.012 | gefitinib 0.005 | [3] 0.068 | lapatinib -0.027 | pictilisib 0.088

GAGE12F (UniProt P0CL80)
inactive: [1] -0.007 | filanesib 0.02 | zotarolimus -0.054 | idasanutlin 0.055 | alisertib -0.312 | [2] -0.02 | gefitinib -0.03 | [3] 0.123 | lapatinib -0.028 | pictilisib 0.108
